Assay results: PubChem BioAssay AID190 (DTP/NCI, 2004)
Values joined by “and” are separate entries in the source; they are usually repeats but may differ in a detail not shown here. Equal entries are not always repeated. This continues a long series; more values of the same kind are listed elsewhere. Inconclusive results and toxic doses are left out. How the source made its calls: active means survival T/C of 150% or more; inactive means T/C below 125% in these data.

Tested on: AKR/Lw mice, AKR lymphoma ip, median survival T/C
Experiment: NCI In Vivo Anticancer Drug Screen. Data for tumor model Lymphoma AKR (Transplanted) (intraperitoneal) in AKR/Lw mice
Settings: endpoint: median survival time, higher = longer survival
Protocol: The antitumor activity of compounds was measured in mice bearing transplantable tumors. Survival or tumor size were measured and the results are expressed as the measurement made in the treated group (T) divided by the measurement made in the vehicle treated control group (C). The tumor model used in this assay is Lymphoma AKR (Transplanted) (intraperitoneal) in AKR/Lw mice

Measured: T/C

O=P1(N(CCCl)CCCl)NCCCO1 (stereo not drawn)
active: dose: 75.0 mg/kg/injection, schedule: Q01DX001 (ip), vehicle: saline with Tween-80 = 375 % of control | dose: 100.0 mg/kg/injection, schedule: Q10DX002 (ip), vehicle: saline 255 % of control | dose: 100.0 mg/kg/injection, schedule: Q12DX002 (ip), vehicle: saline 248 % of control | dose: 100.0 mg/kg/injection, schedule: Q14DX004 (ip), vehicle: saline 290 % of control | dose: 100.0 mg/kg/injection, schedule: Q## X002 (ip), vehicle: saline 248 % of control | dose: 125.0 mg/kg/injection, schedule: Q07DX003 (ip), vehicle: saline 268 % of control | dose: 150.0 mg/kg/injection, schedule: Q01DX001 (ip), vehicle: saline with Tween-80 = 303 % of control | dose: 150.0 mg/kg/injection, schedule: Q12DX002 (ip), vehicle: saline 244 % of control and 294 % of control (2×) | dose: 150.0 mg/kg/injection, schedule: Q## X002 (ip), vehicle: saline 244 % of control | dose: 200.0 mg/kg/injection, schedule: Q12DX002 (ip), vehicle: saline 244 % of control | dose: 200.0 mg/kg/injection, schedule: Q## X002 (ip), vehicle: saline 244 % of control | dose: 300.0 mg/kg/injection, schedule: Q01DX001 (ip), vehicle: saline with Tween-80 = 312 % of control | dose: 300.0 mg/kg/injection, schedule: Q12DX002 (ip), vehicle: saline 293 % of control
